{"sequences": {"note": "Chains of the proteins cited; added tags and fusions are not shown. Residues count along the entry.", "UniProt P19883, residues 30-317": "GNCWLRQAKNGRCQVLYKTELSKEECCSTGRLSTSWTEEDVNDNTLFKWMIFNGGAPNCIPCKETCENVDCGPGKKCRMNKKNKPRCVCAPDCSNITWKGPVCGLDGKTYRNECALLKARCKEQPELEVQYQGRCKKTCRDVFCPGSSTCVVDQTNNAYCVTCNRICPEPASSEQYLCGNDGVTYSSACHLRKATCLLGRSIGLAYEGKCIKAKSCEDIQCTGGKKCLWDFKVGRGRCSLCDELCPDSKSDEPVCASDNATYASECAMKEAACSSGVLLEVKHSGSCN"}, "source": "paper doi:10.1101/153403", "molecular_target": "T1, unprocessed human pro-myostatin (pro-MSTN) (human) (UniProt O14793)", "T1 sequence": "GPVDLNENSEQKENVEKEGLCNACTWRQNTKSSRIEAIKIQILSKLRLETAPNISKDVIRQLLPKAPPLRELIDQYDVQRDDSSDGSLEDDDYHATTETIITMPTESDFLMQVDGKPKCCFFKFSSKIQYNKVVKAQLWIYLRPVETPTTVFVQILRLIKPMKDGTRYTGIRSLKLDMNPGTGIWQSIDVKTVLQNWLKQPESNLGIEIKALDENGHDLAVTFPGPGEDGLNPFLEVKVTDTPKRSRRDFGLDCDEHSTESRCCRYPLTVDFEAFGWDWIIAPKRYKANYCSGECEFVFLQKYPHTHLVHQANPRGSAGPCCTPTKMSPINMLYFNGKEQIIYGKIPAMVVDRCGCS", "assay": "BLI", "note": "These are yes or no findings as the source states them, for the method shown."}
{"substance": "follistatin-288 (from UniProt P19883-2 30-317)", "values": [{"measurement": "binding", "result": "no binding (tested: 500 nM)"}]}
